Measured values: PubChem BioAssay AID977622 (Broad Institute, 2014)
The other results are listed elsewhere or left out. Further columns of the screen follow, without active or inactive calls.

Assays:
[1] = wild-type E. coli growth inhibition versus h38 humanized strain – h38 mutant RFP, wild-type GFP, cherry-pick, dose response (AID 977622); conditions: E. coli mixed culture, 24 h, total growth OD600 at 50 uM
[2] = tested on: E. coli h38 humanized mutant ribosome RFP fluorescence, mixed culture, 24 h; assay: as above; conditions: h38 mutant RFP at 50 uM

Compound	activity change [1] [%]	activity change [2] [%]
COc1ccc2oc(C(=O)NCc3ccco3)c(C)c2c1	-50.9	-20.3
Cc1cc(CNC(=O)c2cc(-c3ccccc3)nc3ccccc23)nn1C	3.77	23.2
CCC(=O)Nc1sc(Cc2ccc3c(c2)OCO3)c(C)c1C(N)=O	-4.99	-7.79
O=C(C[C@@H]1CC[C@@H]2[C@H](COC[C@H](O)CN2C(=O)Nc2ccc(Cl)cc2)O1)NCc1ccncn1	-73	6.98
CC(C)CC#Cc1ccc2c(c1)O[C@@H](CN(C)Cc1ccccn1)[C@H](C)CN([C@H](C)CO)S2(=O)=O	-68.6	104
CCN(c1ccccc1)S(=O)(=O)c1ccc(Cl)c(NC(=O)CSc2n[nH]c(N)n2)c1	-24	33.3
CC(C)(C)S(=O)(=O)Cc1nc(-c2ccc(Cl)c(Cl)c2)cs1	-15.6	-30.6
COc1cc(OC)cc(-c2nc3ccccc3c(=O)n2OC(=O)c2ccc(C)c(C)c2)c1	-6.1	
COc1ccccc1N(C1=NCCCS1)S(=O)(=O)c1ccc(C(C)(C)C)cc1	-23.7	6.04
COc1ccc(C(=O)CSc2nc3ccccc3n2CC(=O)c2ccccc2)cc1	-36.1	
CSc1ccccc1NC(=O)CN(C)CC(=O)c1c(C)[nH]c2ccccc12	-68.1	-7.23
Cc1ccc(S(=O)(=O)Nc2ccc3c(c2)C(=O)N([C@H](C)CO)C[C@@H](C)[C@H](CN(C)C(=O)c2ccccc2)OCCCC[C@@H](C)O3)cc1	-30.8	25
COc1cccc(C(=O)N2C[C@@H]3[C@H](c4ccccc42)[C@H](CO)N3Cc2ccccc2Cl)c1	-60.2	6.98
O=C(O)CC1(CC(=O)Nc2ccc3sccc3c2)CCCCC1	-40.2	-37.9
O=C(Nc1cccc(Cl)c1)c1ccc(S(=O)(=O)NCC2CCCO2)cc1 (stereo unspecified)	-45.8	-51.4
Cc1ccc(NC(=O)c2c(C)noc2-c2snnc2C)cc1	-39.5	18.7
CCN(CC)CCN(C(=O)C1CCCCC1)c1nc2cc3c(cc2s1)OCO3	-41.2	
Cc1ccccc1-n1ncc2c1CC(C)(C)CC2NC(=O)CCN1Cc2ccccc2C1=O (stereo unspecified)	-20.7	-6.18
COc1ccc(CN2C(=O)NC(C)(c3ccc(C)cc3)C2=O)cc1F (stereo unspecified)	-40.7	-12
COC(=O)c1ccc2nc(-c3cccc(Br)c3)c(Cc3ccsc3)n2c1	-26.9	-1.64
COc1ccccc1C(=O)Nc1ccc2c(c1)nc1n2CCN(C2CCCCC2)C1	-39.5	
O=C(c1cc(COc2c(F)cccc2F)on1)N1C[C@H]2CC[C@H]1C2	-23	-8.76

Compound	activity change [1] [%]	activity change [2] [%]
C=C1SC(Nc2c(C)cccc2C)=NC12CCCCC2	-79.8	
c1ccc(Sc2ncnc3ccccc23)cc1	-10.8	-3.52
O=C(O)CC1(CC(=O)NCc2ccc(-c3cccs3)cc2)CCCCC1	-40.4	-6.5
C[C@@H]1CCCCO[C@H](CN(C)C(=O)CCCN(C)C)[C@H](C)CN([C@@H](C)CO)C(=O)c2cc(NC(=O)Nc3cccc4ccccc34)ccc2O1	-30.5	-16.9
CCn1nc(C(=O)OCc2cccc(S(=O)(=O)N(C)C)c2)c2ccccc2c1=O	-30.9	-28.4
Fc1ccc(Br)cc1SCCc1ccncc1	-17.9	-15.7
O=C(Nc1cccc(O)c1)c1cc(-c2ccccc2Cl)on1	-41.3	-25.8
C[C@@H]1CN([C@@H](C)CO)C(=O)c2cc(NC(=O)C3CC3)ccc2O[C@H]1CN(C)C(=O)Nc1ccc(C(F)(F)F)cc1	-10.8	1.99
CCOC(=O)c1ccoc1CN1CCN(S(=O)(=O)c2ccc(C)c(C)c2)CC1	-28.3	
COc1cccc(C(NC(C)=O)c2nc(-c3ccccc3OC)cs2)c1 (stereo unspecified)	-34.2	5.86
CCSc1nc2ccccc2c(=O)n1Cc1ccc(F)cc1	-42.2	35.6
Clc1ccccc1-c1nnc2sc(CCc3ccccc3)nn12	-69.1	30.8
CCN(CC)C(=O)c1sc2nc(-c3ccccc3)ccc2c1N	-59.3	-0.248
COc1ccccc1Cn1c(=S)[nH]c2ccc(F)cc2c1=O	-16.2	
Cc1ccccc1OS(=O)(=O)c1cccc([N+](=O)[O-])c1	-32.4	7.17
Cc1nn(-c2ccc(N3CCCCC3)nn2)c(C)c1CCC(=O)Nc1ccc(F)cc1	-33	-21.3
COc1ccc2c(c1)c1ncn(Cc3ccccn3)c(=O)c1n2C		1.28
Cc1ccc2oc(C(=O)N(CCO)Cc3ccccc3)c(C)c2c1	-57.5	4.93
COC(=O)C[C@H]1C[C@@H]2c3cc(NC(=O)Nc4ccc(C(F)(F)F)cc4)ccc3O[C@@H]2[C@H](CO)O1	-34	-14.5
CC(=O)Nc1ccc(OCc2nnc(-c3ccccc3)o2)cc1	-23.2	19.2
O=C(CCc1nc2ccccc2s1)OCC(=O)c1ccc[nH]1	-28.9	4.21
O=C(O)c1ccc(Oc2ccc([N+](=O)[O-])cc2)c([N+](=O)[O-])c1	-17.3	57.6

Compound	activity change [1] [%]	activity change [2] [%]
CC(=O)Nc1ccc(/C=C/c2ccc3cccc([N+](=O)[O-])c3n2)cc1	-45.5	-14.9
N#Cc1ccsc1NC(=O)CSc1nnc(NC2CC2)s1	-32.3	-17.6
COc1ccc(CC(=O)Nc2nc(-c3cc(OC)ccc3OC)cs2)cc1	-49.8	
CCCc1nc2cc(C)c(Br)c(C)n2c1CC1CCCCC1	-65.6	-9.07
c1ccc(-c2sc3ccccc3c2-c2ccc(OCCN3CCCCC3)cc2)cc1		4.12
Cc1cccc(S(=O)(=O)Nc2ccc(-c3cn4ccccc4n3)cc2)c1	-75.6	-5.78
Cc1ccc(NC(=O)C2CCN(S(=O)(=O)c3ccc4c(c3)NC(=O)CO4)CC2)cc1	-22	
CN(C)C(=O)c1ccc(NC(=O)CSc2nc3ccccc3[nH]2)cc1	-34.5	
O=C1c2ccccc2C(c2nnnn2Cc2ccccc2)N1Cc1cccc(F)c1 (stereo unspecified)	5.71	22.1
O=C(Nc1ccc(Nc2ccccc2)cc1)c1c(Cl)cccc1Cl	-65.8	-1.62
O=C(Nc1cccc(Cl)c1)N1C[C@@H]2[C@H](c3ccccc31)[C@H](CO)N2C(=O)c1cccnc1	-46	8.17
Cc1cccc(CN2C(=O)c3ccccc3Sc3ccc(C(=O)NCCN4CCOCC4)cc32)c1	-20.5	-3.03
CC(=O)Nc1cccc(-c2ccnc3c2CC(C(=O)Nc2ccc4c(c2)OCO4)O3)c1 (stereo unspecified)	-48	-2.42
C[C@@H]1CCCCO[C@@H](CN(C)C)[C@@H](C)CN([C@H](C)CO)C(=O)c2cc(NC(=O)Nc3cccc4ccccc34)ccc2O1	-5.44	12.7
Cc1cc(C)cc(NC(=O)c2cccc(NC(=O)C3C4CC5OC(=O)C3C5C4)c2)c1 (stereo unspecified)	-36	3.12
Cc1ccc(NC(=O)C[n+]2cc(-c3ccccc3)n3c2CCC3)c(C)c1	-6.83	-10.4
C[C@@H]1CN([C@@H](C)CO)C(=O)c2cc(NS(=O)(=O)c3ccccc3)ccc2O[C@@H]1CN(C)Cc1ccc(C(=O)Nc2ccccc2N)cc1	-38	-13.4
O=S(=O)(NCc1ccc2c(c1)OCO2)c1ccc2c(c1)oc1ccccc12	-59.8	-31.7
O=[N+]([O-])c1cccnc1N1CCN(c2ccccc2F)CC1	-64.6	39.5
O=C(O)c1cc([N+](=O)[O-])ccc1NCCc1ccccc1	-70.5	0.667
COc1ccc(Cn2c(-c3ccc(Br)cc3)c[n+]3ccccc23)cc1	-35.9	43.7
S=C1SCN(Cc2cccnc2)CN1Cc1ccccc1	-27.8	8.74

Single entries from the entries so far:
Entry for O=[N+]([O-])c1cccnc1N1CCN(c2ccccc2F)CC1 under activity change [2] [%]: 39.5
Entry for N#Cc1ccsc1NC(=O)CSc1nnc(NC2CC2)s1 under activity change [1] [%]: -32.3
Entry for CC(=O)Nc1cccc(-c2ccnc3c2CC(C(=O)Nc2ccc4c(c2)OCO4)O3)c1 (stereo unspecified) under activity change [1] [%]: -48

Continuation.

Compound	activity change [1] [%]	activity change [2] [%]
O=C(O)c1cc(-c2cccs2)nn1-c1cccc(Cl)c1	-42.3	-22
COc1cccc(S(=O)(=O)N2CCCCN3[C@H](CO)[C@@H](c4ccc(C#CC(C)C)cc4)[C@@H]3C2)c1	-15.9	14.2
Cn1cnc(CCNC(=O)C[C@H]2CC[C@@H]3[C@H](COC[C@H](O)CN3C(=O)Nc3ccc(Cl)cc3)O2)c1	-9.09	15.2
COc1cc2c(cc1OC)C1(C)N(CC2)C(C(C)=O)=NN1c1ccc(Cl)cc1 (stereo unspecified)	-10.1	-0.026
c1ccc(-c2nc3c4ccccc4ccn3c2CN2CCOCC2)cc1	-31.3	
NC(=O)c1ccsc1NC(=O)COC(=O)CSc1ccc(Cl)cc1	-39.1	-11
O=C(Nc1cccnc1)c1ccc([N+](=O)[O-])o1	-7.47	
CCCOC(=O)c1ccc(NC(=O)c2nc3nc(C)cc(C)n3n2)cc1	-3.07	-9.63
CCCCNC(=O)C[C@@H]1C[C@@]2(C(=O)OC)CCCCC=C2N(Cc2ccccc2)C1=O	-21.1	-6.6
Cc1cc(Br)cn2c(Cc3cccc(Cl)c3)c(-c3ccco3)nc12	1.55	7.29
Cc1cccc(C)c1NC(=O)C1(C)CSCC(=O)N1CCOc1ccccc1 (stereo unspecified)	-26.2	-27
COc1ccc(C2CC(=O)CCN2S(=O)(=O)c2ccc(C)cc2)cc1 (stereo unspecified)	-29.6	-14.5
CN(C)C(CNc1ncnc2sc3c(c12)CCCCC3)c1ccco1 (stereo unspecified)	-45.8	-27.3
COc1ccccc1-c1noc2ncnc(Nc3cccc(C)c3C)c12	-5.35	25.3
COc1ccc(CCNc2nc(-c3ccncc3)cs2)cc1OC	-41.6	
CCn1cc(Cl)c(C(=O)Nc2cccc(C(F)(F)F)c2)n1	-8.19	-14.2
O=C(Nc1cccc(F)c1)N1[C@@H]2CNC[C@H]1C2c1ccc(-c2ccncc2)cc1 (stereo partly specified)	0.755	17.2
Cc1ccc(NC(=O)c2ccc(Br)o2)cc1S(=O)(=O)N(C)C	-28.9	-22.5
O=C1c2ccccc2C(c2nnnn2C2CCCCC2)N1CCc1ccc(O)cc1 (stereo unspecified)	-11	-8.19
CCOC(=O)c1ccc(NC(=O)c2ccc(OC(C)C)c(OC)c2)cc1	-23.9	-3.87
Cn1c(=O)c2c(ncn2CC(O)CNc2ccc(F)cc2)n(C)c1=O (stereo unspecified)	0.765	2.96
CCOC(=O)c1cccc(OS(=O)(=O)Cc2ccccc2)c1	-31.9	-6.5
